# Results as given in PubChem BioAssay AID504327 (National Center for Advancing Translational Sciences (NCATS), 2011).
# By UniProt entry, the sequences of proteins in these tests, tags left out.
# UniProt Q92830, whole entry, looked up: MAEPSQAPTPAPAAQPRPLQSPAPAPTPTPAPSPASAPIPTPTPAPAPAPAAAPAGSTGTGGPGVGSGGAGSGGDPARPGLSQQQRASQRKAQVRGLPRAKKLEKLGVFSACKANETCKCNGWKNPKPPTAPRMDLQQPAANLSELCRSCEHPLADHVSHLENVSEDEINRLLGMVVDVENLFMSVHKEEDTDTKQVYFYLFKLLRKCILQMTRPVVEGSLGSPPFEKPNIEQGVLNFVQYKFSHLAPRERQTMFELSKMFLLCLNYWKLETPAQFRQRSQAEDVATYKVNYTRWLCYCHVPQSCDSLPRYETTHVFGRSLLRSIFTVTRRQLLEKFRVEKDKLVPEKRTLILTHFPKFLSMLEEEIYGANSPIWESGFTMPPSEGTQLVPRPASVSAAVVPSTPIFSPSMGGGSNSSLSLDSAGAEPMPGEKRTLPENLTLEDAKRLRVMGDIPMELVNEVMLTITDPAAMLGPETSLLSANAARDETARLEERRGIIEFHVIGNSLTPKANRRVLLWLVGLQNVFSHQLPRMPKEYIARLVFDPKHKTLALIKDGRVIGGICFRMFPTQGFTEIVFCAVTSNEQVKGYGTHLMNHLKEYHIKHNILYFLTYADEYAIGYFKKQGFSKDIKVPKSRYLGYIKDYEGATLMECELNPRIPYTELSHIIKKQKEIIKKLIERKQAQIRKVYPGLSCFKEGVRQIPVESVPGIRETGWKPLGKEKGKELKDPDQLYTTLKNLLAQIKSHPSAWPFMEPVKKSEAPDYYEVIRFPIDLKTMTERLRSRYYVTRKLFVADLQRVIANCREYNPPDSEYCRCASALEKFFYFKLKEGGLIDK
# “And” between values parts separate entries of the source, which are not always exact repeats. Equal entries are not always repeated. The whole screen tested about 390,000 compounds, of which about 820 (0.21%) were called active. Inconclusive results, whose numbers are uncertain, are shown with a selection of clear calls. Calls come from the whole dose curve; as a rule, active = well fitted inhibition curve with a large enough effect; inconclusive = small, poorly fitted or top-dose-only effect, or another doubt; inactive = no such curve, though single readings can be large or run the other way. Where the call is inconclusive, the potency comes from a doubtful curve fit.
# Target: Histone acetyltransferase KAT2A (Homo sapiens) (UniProt Q92830)
# Test: qHTS Assay for Inhibitors of GCN5L2
# Conditions: GCN5L2 HAT assay, ThioGlo1 CoA-SH fluorescence; activity change, negative = inhibition: at 58.9 µM (top of the series) unless noted
# Method in brief: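 Free CoA generated was detected with ThioGlo1 (50uM) fluorescence at Ex340nm/Em540nm, read immediately and after 20 min at room temperature. Enzyme, 20 nM in HEPES pH 7.5 buffer, saw compounds 15 min before adding 75uM H3(1-25) peptide and 70uM acetyl-CoA.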
# % is set by controls: 0 for no effect and ±100 for the full control effect; potency is the fitted concentration of half-maximal effect.
SMILES,Potency,"activity change, negative = inhibition"
CCCc1cc(C(=O)Nc2sc(C(C)=O)c(C)c2C(=O)OCC)no1,"inconclusive: 0.794 µM [inhibitor, full curve, poor fit]",
Cn1cc(CN2CCCC(C(=O)Nc3cccc(-c4cc5ccccc5[nH]4)c3)C2)cn1 (stereo not drawn),,inactive: -6.09%
CCOC(=O)c1ccc(NC(=O)C2=C(C)Nc3nc(SCc4ccc(Cl)cc4)nn3C2c2ccc(C)cc2)cc1 (stereo not drawn),,inactive: -8.03%
CN=C(Nc1ccccc1)SC1CC(=O)N(c2ccc(C(=O)OC)cc2)C1=O (stereo not drawn),"inconclusive: 39.8 µM [inhibitor, partial curve, poor fit]",
COc1ccc(OCC(O)CN2C(=O)c3ccccc3C2=O)cc1 (stereo not drawn),,inactive: -10.6%
O=C1N=C(O)CN1/N=C\c1ccc(-c2ccc([N+](=O)[O-])cc2)o1,"inconclusive: 15.8 µM [inhibitor, single point]",
COc1ccc(NC(=O)C(=O)NCCC2CCCCN2S(=O)(=O)c2ccc(F)cc2)cc1 (stereo not drawn),"inconclusive: 28.2 µM [inhibitor, single point]",
CN1CCN(C(=O)/C(=C/c2cn(S(=O)(=O)N(C)C)c3ccccc23)NC(=O)c2ccccc2F)CC1,"inconclusive: 39.8 µM [inhibitor, single point]",
CCCCCC/C=C\CCCCCCCc1cccc(O)c1C(=O)O,"inconclusive: 8.91 µM [inhibitor, full curve]",
Cc1nn(C)cc1N1C(=O)c2cccc3c(N)ccc(c23)C1=O,"inconclusive: 0.794 µM [inhibitor, full curve, poor fit]",
OCCC1CN(Cc2ccc(F)cc2Cl)CCN1CCc1ccccc1 (stereo not drawn),"inconclusive: 39.8 µM [inhibitor, partial curve]",
Cn1cnc(S(=O)(=O)N2CCc3ccccc32)c1,,inconclusive: -34.5% [inhibitor]
CC(C)COCC1CC2(CC(C)(c3csc(N)n3)OC2=O)C(=O)O1 (stereo not drawn),"inconclusive: 35.5 µM [inhibitor, single point]",
CC(C)(C)N(Cc1ccccc1)C(=O)COC(=O)c1cccc([N+](=O)[O-])c1,"inconclusive: 14.1 µM [inhibitor, partial curve, poor fit]",
COc1ccccc1CNC(=O)CCc1c(C)nc2cc(-c3ccccc3OC)nn2c1C,"inconclusive: 17.8 µM [inhibitor, partial curve]",
C/C(=N\Nc1nccnc1Cl)c1ccc(Br)cc1,"inconclusive: 35.5 µM [inhibitor, single point]",
CCOc1ccccc1NC(=O)Cn1c(=O)n(CCCC(=O)NCCOC)c(=O)c2cc(OC)c(OC)cc21,,inactive: -11.2%
CCOC(=O)C1(Cc2ccc(Cl)cc2)CCN(C(C)Cc2ccc(O)c(OC)c2)CC1 (stereo not drawn),,inactive: -3.2%
C[C@@H](C(=O)Nc1cccc(S(=O)(=O)N2CCOCC2)c1)N1C(=O)C2CC=CCC2C1=O (stereo partly drawn),"inconclusive: 0.1 µM [inhibitor, full curve, poor fit]",
CCCC(=O)Nc1cc(C)c(NC(=O)c2ccco2)cn1,,inconclusive: -32.6% [inhibitor]
O=S(=O)(NNc1nccc(C(F)(F)F)n1)c1cccc(Cl)c1Cl,,inactive: 1.04%
C#CC[N+]1(CC#Cc2ccccc2)CCCC1,,inactive: -0.817%
C#CCOc1ccc(C2C3=C(CCCC3=O)N(CC(=O)O)C3=C2C(=O)CCC3)cc1Br,,inconclusive: -30.3% [inhibitor]

# Copied from the entries so far for reference:
SMILES,Potency,"activity change, negative = inhibition"
C/C(=N\Nc1nccnc1Cl)c1ccc(Br)cc1,"inconclusive: 35.5 µM [inhibitor, single point]",
CCOc1ccccc1NC(=O)Cn1c(=O)n(CCCC(=O)NCCOC)c(=O)c2cc(OC)c(OC)cc21,,inactive: -11.2%
CCOC(=O)C1(Cc2ccc(Cl)cc2)CCN(C(C)Cc2ccc(O)c(OC)c2)CC1 (stereo not drawn),,inactive: -3.2%

# Next records:

SMILES,Potency,"activity change, negative = inhibition"
Cc1cccc(C(=O)Nc2nnc(Cc3c[nH]c4ccccc34)s2)c1,"inconclusive: 0.794 µM [inhibitor, single point]",
C=CCN1CCN(c2nc3ccccc3nc2C#N)CC1,"inconclusive: 35.5 µM [inhibitor, single point]",
COc1ccc(-c2nc(CS(=O)CC(=O)NC3CCCCC3)c(C)o2)cc1OC (stereo not drawn),,inactive: -7.19%
CNC(=O)c1cc2cc(OC)ccc2oc1=N,"inconclusive: 28.2 µM [inhibitor, single point]",
O=C(CCCN1C(=O)/C(=C\c2ccccc2)SC1=S)Nc1cccc(C(=O)O)c1,,inactive: -22.9%
Cc1ccc2c(c1C)OC(=O)CC2c1ccccc1 (stereo not drawn),"inconclusive: 0.631 µM [inhibitor, single point]",
N#CCCn1cc(C=C(C#N)C#N)c(-c2ccc(-c3ccccc3)cc2)n1,,inactive: -13.3%
Cc1c2cnn(CC(=O)NCCN3CCOCC3)c(=O)c2c(C)n1Cc1ccccc1,"inconclusive: 0.141 µM [inhibitor, partial curve, poor fit]",
Cc1ccc(CS(=O)(=O)CCC(=O)NCCCN2CCCC2)cc1,"inconclusive: 35.5 µM [inhibitor, single point]",
Cc1ccccc1Cn1c(SCc2ccc(C(=O)NCCc3ccccc3)cc2)nc2ccncc21,,inactive: -4%
CCCCC1CCC(CCCC(C)CCC(=O)O)CC1 (stereo not drawn),"inconclusive: 39.8 µM [inhibitor, single point]",
CCOCc1cnc(C)nc1NCC(=O)c1c(C)[nH]c2ccc(OC)cc12,"inconclusive: 8.91 µM [inhibitor, partial curve]",
CCOC(=O)C1C(=O)C=C(N2CCOCC2)CC1c1cccc(OC)c1 (stereo not drawn),"inconclusive: 0.794 µM [inhibitor, single point]",
CN(C)S(=O)(=O)c1ccc(C(=O)N2CCN(S(=O)(=O)c3cccs3)CC2)cc1,,inactive: 2%
CCOC(=O)c1c(NC(=O)CSc2nnc(-c3ccccc3C)n2C)sc(C(C)=O)c1C,,inactive: -21%
O=C(CSC1=NCCS1)Nc1nc2c(s1)CCCC2,"inconclusive: 39.8 µM [inhibitor, single point]",
Cc1nn(C)c(C)c1C(C)NC(=O)c1cc(COc2ccc(F)c(F)c2)on1 (stereo not drawn),"inconclusive: 0.631 µM [inhibitor, full curve, poor fit]",
Cn1cccc1Cc1nnc(SCC(=O)NCc2ccco2)n1CCc1ccccc1,"inconclusive: 39.8 µM [inhibitor, single point]",
COC(=O)c1ccccc1NC(=O)c1cc(-c2cccs2)on1,active: 3.16 µM,
O=C(NCc1ccccc1Cl)c1cc2ccccc2oc1=O,"inconclusive: 3.55 µM [inhibitor, single point]",
CCc1ccccc1NC(=O)CSc1ccsc1[N+](=O)[O-],,inactive: -16.4%
CC(=O)c1ccc(OCC(O)CN2CCN(Cc3ccc4c(c3)OCO4)CC2)cc1 (stereo not drawn),"inactive and inconclusive: 39.8 µM [inhibitor, single point]",
O=C(c1ccccc1)c1ccccc1N1C(=O)C=CC1=O,"inconclusive: 22.4 µM [inhibitor, single point]",

SMILES,Potency,"activity change, negative = inhibition"
Cc1[nH]c2ccccc2c1/C=N/NC(=O)CCC(=O)Nc1ccccc1,"inconclusive: 7.08 µM [inhibitor, single point]",
Cc1nn(-c2ccccc2)nc1CNS(C)(=O)=O,"inconclusive: 3.16 µM [inhibitor, partial curve, poor fit]",
COc1ccc(CN2CCN(C(=O)c3ccc(S(=O)(=O)NCc4ccco4)cc3)CC2)cc1F,,inactive: -17%
COC(=O)c1ccc(C)c(NC(=O)CSc2sc3c(O)cc(=O)[nH]c3c2C#N)c1,"inconclusive: 7.08 µM [inhibitor, partial curve]",
COc1ccc(-c2[nH]c(-c3ccc4c(c3)OCO4)nc2-c2ccccc2)cc1,,inactive: -6.83%
COc1ccc(N2CCN(S(=O)(=O)CCNC(=O)/C=C/c3ccc4c(c3)OCO4)CC2)cc1,,inconclusive: -31.8% [inhibitor]
COC(=O)Cc1cc(=O)oc2c(C)c(O)ccc12,"inconclusive: 15.8 µM [inhibitor, partial curve]",
COc1ccc(N2CC(C(=O)N[C@@H](C)C(=O)NC3CCCC3)CC2=O)cc1 (stereo partly drawn),"inconclusive: 39.8 µM [inhibitor, single point]",
O=c1c(-c2ccc(F)cc2)nc2cnc(Oc3ccccc3)nc2n1C[C@H]1CCCO1,"inconclusive: 39.8 µM [inhibitor, single point]",
CCCCCCN1C=CC(=C/C=C(\C#N)C(=O)OCC)C=C1,"inconclusive: 0.794 µM [inhibitor, single point]",
CN(C(=O)COC(=O)CNC(=O)c1ccccc1F)C1CCCCC1,"inconclusive: 0.794 µM [inhibitor, full curve]",
COc1cccc2sc3cc(NCC[C@@H]4CCCN4C)ccc3c(=O)c12,"inconclusive: 31.6 µM [inhibitor, single point]",
COc1ccc2nc(NC(=O)CSc3nnc(C)s3)sc2c1,"inconclusive: 5.01 µM [inhibitor, single point]",
O=c1oc2c(CN3CCOCC3)c(O)c(Cl)cc2c2c1CCCC2,"inconclusive: 10 µM [inhibitor, partial curve]",
CC(=NCCCn1ccnc1)C1=C(O)c2ccccc2C1=O,"inconclusive: 8.91 µM [inhibitor, single point]",
O=C(c1ccc(Cn2c(=S)[nH]c3ccc(N4CCOCC4)cc3c2=O)cc1)N1CCC(N2CCCCC2)CC1,"inconclusive: 39.8 µM [inhibitor, single point]",
CC(=O)c1ccc(NC(=O)CSc2nccn2Cc2ccco2)cc1,,inactive: 4.37%
COc1ccc(NC(=O)CS(=O)(=O)c2cn(CC(=O)N3CCOCC3)c3ccccc23)cc1OC,"inconclusive: 0.631 µM [inhibitor, full curve]",
COC(=O)c1cc(=O)n(Cc2cccs2)c(=Nc2ccc(F)cc2)s1,"inconclusive: 25.1 µM [inhibitor, partial curve]",
O=C(c1ccncc1)N1CCC[C@@]2(CCN(c3cccc(-c4ccccc4)c3)C2)C1,,inactive: -3.11%
Cc1ccc(/C=C/C2=Cc3c(sc(NC(=O)CSc4n[nH]c(N)n4)c3C#N)C(C)(C)C2)o1,,inactive: -21.8%
O=[N+]([O-])c1ccc(Cn2cc(-c3cccc(C(F)(F)F)c3)nn2)cc1,"inconclusive: 4.47 µM [inhibitor, full curve, poor fit]",
